Five compounds from the supplement of paper PMC7411640 can be followed below.

The structures appear in SMILES notation. Where a name gives a salt, the structure may show the parent alone. The list shows a part of the results. Repeats in this data set agree poorly, so a single value says little.

The assay deals with MDA-MB-468. As to the kind of experiment: phospho-S6 immunofluorescence (DAPI-normalised), per-plate z-score; higher = higher phospho-S6 signal (less pathway suppression). As to conditions: 24 h. How it is done: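 GPCR-targeted compound library (MedChemExpress HY-L006) tested on MDA-MB-468 PTEN-null TNBC cells in 384-well plates at 0.1, 1 or 10 uM, combined with vehicle, GDC0941 450 nM or lapatinib 1 uM, for 24 h. Phospho-S6 (S240/244) immunofluorescence normalised to DAPI and expressed as a per-plate z-score; values are the mean of biological triplicates.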

Where [1] appears, read: compound 0.1 µM, co-treatment: GDC0941 450 nM.
Setting [2] is: compound 0.1 µM, co-treatment: lapatinib 1 uM.
The mark [3] stands for this setting: compound 0.1 µM, co-treatment: vehicle.
Setting [4] is: compound 1 µM, co-treatment: GDC0941 450 nM.
Setting [5] is: compound 1 µM, co-treatment: lapatinib 1 uM.
Where [6] appears, read: compound 1 µM, co-treatment: vehicle.
Where [7] appears, read: compound 10 µM, co-treatment: GDC0941 450 nM.
The mark [8] stands for this setting: compound 10 µM, co-treatment: lapatinib 1 uM.
Where [9] appears, read: compound 10 µM, co-treatment: vehicle.

Turning to `CN1[C@@H]2CC[C@H]1C[C@@H](OC(=O)[C@H](CO)c1ccccc1)C2` [L-Hyoscyamine], the “phospho-S6 immunofluorescence (z-score)” value is, setting by setting: under setting [1], 0.63; under setting [2], -0.01; under setting [3], 0.31; under setting [4], 0.69; under setting [5], 0.51; under setting [6], 1.57.

In the case of `O=c1[nH]c2ccccc2n1CCCN1CCC(n2c(=O)[nH]c3cc(Cl)ccc32)CC1` [Domperidone], the “phospho-S6 immunofluorescence (z-score)” value is -0.94 under setting [1]; 0.04 under setting [2]; 0.4 under setting [3]; -0.22 under setting [4]; -0.79 under setting [5]; -0.6 under setting [6]. For the same compound, the “phospho-S6 immunofluorescence (z-score)” value came to 0.19 under setting [7], 0.25 under setting [8] and 1.62 under setting [9].

For the compound `CN(C)C(=O)Oc1cc(OC(=O)N(C)C)cc(C(O)CNC(C)(C)C)c1` (configuration not stated) [Bambuterol (hydrochloride)], the “phospho-S6 immunofluorescence (z-score)” value by setting is: under setting [1], -0.62; under setting [2], -1.13; under setting [3], -0.26; under setting [4], -0.71; under setting [5], -1.48; under setting [6], -0.62. The “phospho-S6 immunofluorescence (z-score)” value runs as follows: under setting [7], -0.5; under setting [8], 0.49; under setting [9], -0.4.

Consider `CCC(COC(=O)c1cc(OC)c(OC)c(OC)c1)(c1ccccc1)N(C)C` (configuration not stated) [Trimebutine (maleate)], for which the “phospho-S6 immunofluorescence (z-score)” value reads like this: under setting [1], -0.72; under setting [2], -0.41; under setting [3], -0.04; under setting [4], 0.24; under setting [5], -0.53; under setting [6], 0.57. Besides, the “phospho-S6 immunofluorescence (z-score)” value amounted to 1.12 under setting [7], 1.5 under setting [8] and 0.51 under setting [9].

`CNC(C)Cc1ccccc1OC` (configuration not stated) [Methoxyphenamine (Hydrochloride)]: the “phospho-S6 immunofluorescence (z-score)” value under setting [1] worked out at 0.36; the “phospho-S6 immunofluorescence (z-score)” value under setting [2] stood at 0.58; the “phospho-S6 immunofluorescence (z-score)” value under setting [3] worked out at 1.68; the “phospho-S6 immunofluorescence (z-score)” value under setting [4] was 1.32; the “phospho-S6 immunofluorescence (z-score)” value under setting [5] amounted to 0.42; the “phospho-S6 immunofluorescence (z-score)” value under setting [6] is 1.17. Also, the “phospho-S6 immunofluorescence (z-score)” value under setting [7] came to 0.57, the “phospho-S6 immunofluorescence (z-score)” value under setting [8] is -0.2 and the “phospho-S6 immunofluorescence (z-score)” value under setting [9] came to 0.23.
